PubChem BioAssay AID1508615 (Milbrandt Lab, Department of Genetics, Washington …, 2020)
Among all 1,600 compounds or so, about 20 (1%) were called active.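 Rule for the calls: active = ratio of uncleaved NAD to its breakdown product ADP-ribose above 4, meaning the enzyme was inhibited; inactive = the rest.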 Some of the results follow.

Chains of the proteins cited; added tags and fusions are not shown. Lines headed by an entry give the natural chain unless they say otherwise; changes in a name come on top.
UniProt Q6SZW1: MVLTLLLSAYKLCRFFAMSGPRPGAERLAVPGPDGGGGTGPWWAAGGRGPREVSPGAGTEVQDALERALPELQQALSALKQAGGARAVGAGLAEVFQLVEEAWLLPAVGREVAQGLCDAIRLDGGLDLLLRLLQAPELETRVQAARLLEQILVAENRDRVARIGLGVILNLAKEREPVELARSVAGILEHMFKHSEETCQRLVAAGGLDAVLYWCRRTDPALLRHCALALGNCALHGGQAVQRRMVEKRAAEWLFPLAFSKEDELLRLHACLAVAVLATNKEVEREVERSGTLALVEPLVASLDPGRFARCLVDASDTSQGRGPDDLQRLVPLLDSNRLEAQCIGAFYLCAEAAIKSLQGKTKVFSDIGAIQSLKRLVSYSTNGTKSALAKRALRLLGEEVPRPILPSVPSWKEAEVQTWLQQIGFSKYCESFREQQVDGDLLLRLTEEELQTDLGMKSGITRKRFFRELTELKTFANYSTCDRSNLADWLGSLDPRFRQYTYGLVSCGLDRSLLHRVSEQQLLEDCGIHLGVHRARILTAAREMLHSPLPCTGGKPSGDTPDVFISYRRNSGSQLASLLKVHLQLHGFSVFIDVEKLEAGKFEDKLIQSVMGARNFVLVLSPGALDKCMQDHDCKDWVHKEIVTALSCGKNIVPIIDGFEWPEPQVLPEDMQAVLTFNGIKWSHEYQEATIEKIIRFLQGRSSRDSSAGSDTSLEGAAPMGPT

The compounds below were run against NAD(+) hydrolase SARM1 (Homo sapiens) (UniProt Q6SZW1) (assay: inhibition of SAM-TIR NAD hydrolysis to ADPR – cell lysate, HPLC readout, primary screen (AID 1508615;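 note: substrate NAD at 5 µM with 60 min at 37 °C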)). Conditions: HEK293T SAM-TIR lysate, NAD/ADPR ratio by HPLC; at 5 µM; active compounds read high.

NAD/ADPR ratio, inactive:
Cc1nnc(Cc2ccccc2)c2n[nH]c(C)c12 3
Oc1ccc(N=Nc2nccs2)c(O)c1 3
NNC(=O)CNc1cccc(Br)c1 3
O=C(Nc1cc(-c2ccccc2)[nH]n1)c1ccc(Cl)cc1 3
Nc1nc(Nc2ccccc2)n[nH]1 3
O=C(Nc1cccc([N+](=O)[O-])c1)c1cc2ccccc2cc1O 3
O=C(Nc1ccc2ncccc2c1)Nc1ccc2ncccc2c1 3
COc1ccc(N=Nc2c(N)n[nH]c2N)cc1 3
Cc1cccc2cc3cccc(C)c3nc12 3
O=C1C(Cl)=C(O)C2(Cl)C(Cl)=C(Cl)C12Cl (stereo not drawn) 3
CCOC(=O)c1cnc(SCC)[nH]c1=O 3
CSc1nc(N)c(C(=O)NC2CCCCC2)s1 3
COC(=O)c1c[n+]([O-])ccc1OC 3
COc1ccc(C(=S)N2CCN(c3ccccc3Cl)CC2)cc1OC 3
NC(=O)c1ncn2c(=O)n(CCCl)nnc12 3
CC1OC1c1ccc(-c2ccc(C3OC3C)cc2)cc1 (stereo not drawn) 3
CN(C)CCCN1c2ccc3ccccc3c2Sc2cccc(Cl)c21 3
O=C(NCc1ccco1)Nc1ccc([N+](=O)[O-])cc1 3
O=C(O)C1=NN(c2cc(Cl)c(S(=O)(=O)O)cc2Cl)C(=O)C1 3
CCC(C)Oc1nc2c(c(=O)n(C)c(=O)n2C)n1C (stereo not drawn) 3
O=C(Nc1ccc(Br)cc1)Nc1ccccc1Cl 3
C[C@]12CCC3c4ccc(OCC(=O)O)cc4CCC3C1CCC2=O (stereo partly drawn) 3
CCCCCCC(C)OC(=O)c1ccccc1C(=O)O (stereo not drawn) 3
Clc1cc2c(c(CSc3nc4ccccc4n4cccc34)c1)OCOC2 3
c1ccc(-c2ccc3c(c2)NC(C2Nc4cc(-c5ccccc5)ccc4O2)O3)cc1 (stereo not drawn) 3
Cc1cc(NC(=O)Nc2cc(Cl)ccc2C)no1 3
ClN=C1C=CC=CC1=NCl 3
CN(C)N1C(=O)c2c(Cl)c(Cl)c(Cl)c(Cl)c2C1=O 3
N#CC1=C(Nc2ccccc2Cl)SC(c2ccncc2)NC1=O (stereo not drawn) 3
Clc1nnc2c3ccccc3ccn12 3
Cc1nc(N)[nH]c(=O)c1CCCNc1ccc(CCC2(CCl)OCCO2)cc1 3
CC1=CC2C(C(O)CC3(C)C2CC(C)C32OCOC23COCO3)C2(C)C/C(=C/O)C(=O)C=C12 (stereo not drawn) 3
NC(N)=Nc1nc2ccc([N+](=O)[O-])cc2[nH]1 3

Three entries drawn at random from those above:
NAD/ADPR ratio, inactive:
CCCCCCC(C)OC(=O)c1ccccc1C(=O)O (stereo not drawn) 3
CCC(C)Oc1nc2c(c(=O)n(C)c(=O)n2C)n1C (stereo not drawn) 3
c1ccc(-c2ccc3c(c2)NC(C2Nc4cc(-c5ccccc5)ccc4O2)O3)cc1 (stereo not drawn) 3
